Data on 2 molecules can be found in publication PMC11192709.

Sequences of proteins named here, by UniProt entry; tags and fusion partners are left off.
UniProt P09874: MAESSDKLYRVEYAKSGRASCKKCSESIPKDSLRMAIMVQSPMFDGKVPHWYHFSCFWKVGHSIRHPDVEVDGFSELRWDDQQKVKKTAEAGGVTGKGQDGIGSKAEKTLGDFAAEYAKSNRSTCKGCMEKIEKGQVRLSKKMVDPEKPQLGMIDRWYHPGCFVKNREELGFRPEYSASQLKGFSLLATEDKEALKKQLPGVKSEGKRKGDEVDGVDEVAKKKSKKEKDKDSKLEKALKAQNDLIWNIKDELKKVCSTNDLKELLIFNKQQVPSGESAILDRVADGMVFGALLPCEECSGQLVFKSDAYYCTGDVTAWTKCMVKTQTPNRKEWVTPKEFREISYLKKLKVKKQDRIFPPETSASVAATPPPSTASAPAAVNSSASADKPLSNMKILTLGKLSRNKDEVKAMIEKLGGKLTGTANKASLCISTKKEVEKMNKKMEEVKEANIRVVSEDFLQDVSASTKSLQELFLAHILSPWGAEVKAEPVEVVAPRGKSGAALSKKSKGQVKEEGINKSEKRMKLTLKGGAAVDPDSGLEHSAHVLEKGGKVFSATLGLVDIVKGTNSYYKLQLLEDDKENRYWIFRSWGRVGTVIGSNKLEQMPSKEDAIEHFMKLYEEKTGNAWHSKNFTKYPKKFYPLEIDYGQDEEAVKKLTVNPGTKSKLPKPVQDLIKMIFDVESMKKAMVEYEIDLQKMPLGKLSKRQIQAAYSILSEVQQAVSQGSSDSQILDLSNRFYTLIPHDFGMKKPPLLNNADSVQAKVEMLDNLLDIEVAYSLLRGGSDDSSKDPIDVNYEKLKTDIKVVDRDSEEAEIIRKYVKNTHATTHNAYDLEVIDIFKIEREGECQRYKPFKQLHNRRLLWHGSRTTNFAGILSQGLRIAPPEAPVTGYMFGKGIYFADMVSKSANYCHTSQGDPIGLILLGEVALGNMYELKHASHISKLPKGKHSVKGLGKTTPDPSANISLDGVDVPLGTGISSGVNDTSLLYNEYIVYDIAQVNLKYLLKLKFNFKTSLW

These are yes or no findings as the source states them, for the method shown. In cells and extracts the contact can be indirect. Some results given as binding are weak or reduced against the parent protein; the word gives no strength.

Experiment [1] deals with T1, XRCC2 (human (endogenous in SW620)) (UniProt O43543).
T1 sequence: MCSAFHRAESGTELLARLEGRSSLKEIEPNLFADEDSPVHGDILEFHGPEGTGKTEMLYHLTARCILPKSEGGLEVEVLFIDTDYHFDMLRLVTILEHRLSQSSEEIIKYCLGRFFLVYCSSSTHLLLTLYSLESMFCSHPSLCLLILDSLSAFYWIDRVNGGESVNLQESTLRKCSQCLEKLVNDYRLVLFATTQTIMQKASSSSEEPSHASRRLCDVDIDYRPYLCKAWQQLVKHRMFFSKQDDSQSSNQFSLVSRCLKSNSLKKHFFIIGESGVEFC
Briefly: co-IP; Pierce Co-Immunoprecipitation Kit; SW620 cells; precipitation with anti-PARP1 or anti-XRCC2 mouse monoclonal antibody (two-way), IgG as negative control, Western blot. On the technique in general: In western blotting, separated proteins are transferred to a membrane and probed.

The target in experiment [2] is PAR polymerase1 (PARP1) (human (endogenous in SW620)) (UniProt P09874). Described as above.

“PAR polymerase1 (PARP1) (from UniProt P09874 1-1014)”: the binding entry in experiment [1] is “binds”.

B1: XRCC2 (protein, UniProt O43543 1-280)
chain: MCSAFHRAESGTELLARLEGRSSLKEIEPNLFADEDSPVHGDILEFHGPEGTGKTEMLYHLTARCILPKSEGGLEVEVLFIDTDYHFDMLRLVTILEHRLSQSSEEIIKYCLGRFFLVYCSSSTHLLLTLYSLESMFCSHPSLCLLILDSLSAFYWIDRVNGGESVNLQESTLRKCSQCLEKLVNDYRLVLFATTQTIMQKASSSSEEPSHASRRLCDVDIDYRPYLCKAWQQLVKHRMFFSKQDDSQSSNQFSLVSRCLKSNSLKKHFFIIGESGVEFC
Turning to B1, the binding entry in experiment [2] is “binds”.
